These are yes or no findings as the source states them, for the method shown. For some assays here: Binding seen in cells or lysates may run through a third protein. Some entries that bind do so weakly or less than the wild type. Tags and fused reporters may be left off the sequences shown.
Columns and labels:
[1] = target: T1, Tls1 fused with the GAL4 DNA-binding domain (S. pombe) (UniProt Q10148); assay: two-hybrid; Tls1 fused with the GAL4 DNA-binding domain (pGBT9), Brr2 with the GAL4 activation domain (pGAD424), strain pJ69-4A; HIS3 reporter, growth on medium lacking histidine
T1 sequence: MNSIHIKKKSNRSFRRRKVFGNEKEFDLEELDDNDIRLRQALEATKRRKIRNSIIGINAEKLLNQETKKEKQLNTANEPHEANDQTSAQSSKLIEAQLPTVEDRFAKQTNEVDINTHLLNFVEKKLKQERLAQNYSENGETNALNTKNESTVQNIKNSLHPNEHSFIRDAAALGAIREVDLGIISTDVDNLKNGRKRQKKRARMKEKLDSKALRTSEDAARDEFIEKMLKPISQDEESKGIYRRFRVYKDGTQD

Amino acid sequences for entries named in this document (tags omitted).
UniProt Q9UT24: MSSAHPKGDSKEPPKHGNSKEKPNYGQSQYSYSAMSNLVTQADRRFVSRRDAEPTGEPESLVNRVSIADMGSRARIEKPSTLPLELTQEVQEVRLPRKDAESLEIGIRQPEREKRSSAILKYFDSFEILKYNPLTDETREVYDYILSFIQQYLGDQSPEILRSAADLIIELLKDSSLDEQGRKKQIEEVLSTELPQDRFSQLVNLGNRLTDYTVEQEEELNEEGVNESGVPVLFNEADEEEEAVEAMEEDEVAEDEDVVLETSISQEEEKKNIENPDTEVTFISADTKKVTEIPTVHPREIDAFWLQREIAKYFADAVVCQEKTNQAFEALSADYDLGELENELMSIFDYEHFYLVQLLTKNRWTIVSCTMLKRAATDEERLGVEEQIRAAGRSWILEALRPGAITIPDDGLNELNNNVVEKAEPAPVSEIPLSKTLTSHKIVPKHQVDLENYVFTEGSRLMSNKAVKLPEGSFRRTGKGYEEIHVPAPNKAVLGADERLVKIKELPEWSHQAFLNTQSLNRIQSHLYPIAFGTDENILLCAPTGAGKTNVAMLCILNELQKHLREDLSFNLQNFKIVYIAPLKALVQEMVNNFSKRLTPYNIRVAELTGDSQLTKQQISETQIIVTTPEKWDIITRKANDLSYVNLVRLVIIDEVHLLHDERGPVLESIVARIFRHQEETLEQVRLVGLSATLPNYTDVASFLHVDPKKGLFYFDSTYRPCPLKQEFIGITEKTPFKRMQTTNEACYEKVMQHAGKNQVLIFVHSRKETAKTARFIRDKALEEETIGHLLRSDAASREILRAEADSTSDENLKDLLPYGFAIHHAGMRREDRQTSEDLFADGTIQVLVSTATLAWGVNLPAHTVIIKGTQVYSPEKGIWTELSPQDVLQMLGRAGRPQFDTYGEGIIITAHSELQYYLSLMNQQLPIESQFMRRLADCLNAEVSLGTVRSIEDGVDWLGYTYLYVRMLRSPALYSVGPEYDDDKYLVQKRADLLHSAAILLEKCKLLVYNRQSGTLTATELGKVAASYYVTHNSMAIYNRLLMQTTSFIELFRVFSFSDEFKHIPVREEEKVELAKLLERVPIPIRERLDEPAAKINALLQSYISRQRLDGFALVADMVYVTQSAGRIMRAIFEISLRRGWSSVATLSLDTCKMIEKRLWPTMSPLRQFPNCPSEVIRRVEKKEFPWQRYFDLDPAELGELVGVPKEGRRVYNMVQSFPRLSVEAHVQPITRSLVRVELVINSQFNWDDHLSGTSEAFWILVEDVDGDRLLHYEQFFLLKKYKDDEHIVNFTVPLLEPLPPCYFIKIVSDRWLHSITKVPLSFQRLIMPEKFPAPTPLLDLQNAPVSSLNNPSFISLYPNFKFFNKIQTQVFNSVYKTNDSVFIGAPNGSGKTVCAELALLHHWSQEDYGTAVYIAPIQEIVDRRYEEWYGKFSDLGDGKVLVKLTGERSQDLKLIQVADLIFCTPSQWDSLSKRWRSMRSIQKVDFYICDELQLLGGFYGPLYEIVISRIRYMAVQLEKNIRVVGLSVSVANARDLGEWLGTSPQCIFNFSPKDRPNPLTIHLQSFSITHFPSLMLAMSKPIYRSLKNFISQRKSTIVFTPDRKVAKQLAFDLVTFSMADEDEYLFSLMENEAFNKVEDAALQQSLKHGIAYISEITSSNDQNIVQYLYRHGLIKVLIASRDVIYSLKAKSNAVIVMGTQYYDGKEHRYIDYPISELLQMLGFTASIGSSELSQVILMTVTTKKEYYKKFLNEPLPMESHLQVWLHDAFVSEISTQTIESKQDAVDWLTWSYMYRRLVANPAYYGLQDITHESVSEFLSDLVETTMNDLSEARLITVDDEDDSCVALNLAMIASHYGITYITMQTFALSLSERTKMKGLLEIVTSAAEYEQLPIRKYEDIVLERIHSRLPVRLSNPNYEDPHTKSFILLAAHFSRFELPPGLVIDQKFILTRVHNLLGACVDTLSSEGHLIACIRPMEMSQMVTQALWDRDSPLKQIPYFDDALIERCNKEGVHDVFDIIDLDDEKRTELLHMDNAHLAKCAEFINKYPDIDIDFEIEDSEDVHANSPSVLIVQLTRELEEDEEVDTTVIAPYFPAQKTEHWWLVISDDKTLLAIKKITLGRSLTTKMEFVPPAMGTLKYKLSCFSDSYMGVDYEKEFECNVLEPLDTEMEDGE

[2] = target: T2, N-terminal Flag-tagged Tls1 (S. pombe) (UniProt Q10148); assay: co-IP; whole cell extracts incubated with Flag-agarose beads to pull down Flag-Tls1; western blot with Flag and myc antibodies; 1xHC buffer with 250 mM KCl
T2 sequence: T1 sequence

| Substance | binding [1] | binding [2] |
| --- | --- | --- |
| Brr2 fused with the GAL4 activation domain (from UniProt Q9UT24 1-2176) | binds |  |
| C-terminal myc-tagged Brr2 (from UniProt Q9UT24 1-2176) |  | binds |
